Test results as given in publication PMC6152025, “Inhibitors of the Detoxifying Enzyme of the Phytoalexin Brassinin Based on Quinoline and Isoquinoline Scaffolds” (Molecules : A Journal of Synthetic Chemistry and Natural …, 2017).

Tested on: T1, brassinin oxidase (BOLm)
T1 construct: native enzyme, not purified; dialyzed cell-free mycelial protein extract, induced by 3-phenylindole; never expressed heterologously
Assay: HPLC-DAD of indole-3-carboxaldehyde formed, cell-free extract
Assay type: biochemical, Leptosphaeria maculans
Settings: 0.10 mM brassinin, 0.10 mM PMS, pH ~8.3, 24 °C

Compound | % Inhibition ^b / 0.30 mM
Cc1ccc2ncc(-c3ccccc3)cc2c1 [6g, 6-Methyl-3-phenylquinoline] | 32 ± 3%
c1ccc(-c2ccc3nc(-c4ccccc4)ccc3c2)cc1 [7f, 2,6-Diphenylquinoline] | 19 ± 1%
Cc1cnc2ccc(-c3ccccc3)cc2c1 [7c, 3-Methyl-6-phenylquinoline] | 33 ± 6%
COc1ccc2ncc(-c3ccccc3)cc2c1 [6f, 6-Methoxy-3-phenylquinoline] | 40 ± 3%
CCc1cnc2ccc(-c3ccccc3)cc2c1 [7d, 3-Ethyl-6-phenylquinoline] | 64 ± 5%
CC(C)c1cnc2ccc(-c3ccccc3)cc2c1 [7e, 3-Isopropyl-6-phenylquinoline] | 33 ± 5%
Oc1ccc2nc(-c3ccccc3)ccc2c1 [5e, 6-Hydroxy-2-phenylquinoline] | 22 ± 1%
c1ccc(-c2ccc3ncccc3c2)cc1 [7a, 6-Phenylquinoline] | 36 ± 2%
c1ccc(-c2ccc3ncc(-c4ccccc4)cc3c2)cc1 [7g, 3,6-Diphenylquinoline] | 25 ± 1%
c1ccc(-c2cnc3ccccc3c2)cc1 [6a, 3-Phenylquinoline] | 30 ± 4%
Oc1ccc2ncc(-c3ccccc3)cc2c1 [6e, 6-Hydroxy-3-phenylquinoline] | 34 ± 2%
